Experimental data taken from the supplement of paper PMC3334620.
In all, about 33,000 sequences were measured (“E-score (-0.5 to 0.5)”: median about -0.0059, highest 2% from about 0.26 on). Some of the results follow.

biological target: T1, Cin5 (UniProt P40917); experiment: PBM E-score (8-mer binding enrichment) (E-score (-0.5 to 0.5)); higher = stronger / more preferred TF binding; conditions: protein concentration: 100 nM; construct: GST-full length
T1 sequence: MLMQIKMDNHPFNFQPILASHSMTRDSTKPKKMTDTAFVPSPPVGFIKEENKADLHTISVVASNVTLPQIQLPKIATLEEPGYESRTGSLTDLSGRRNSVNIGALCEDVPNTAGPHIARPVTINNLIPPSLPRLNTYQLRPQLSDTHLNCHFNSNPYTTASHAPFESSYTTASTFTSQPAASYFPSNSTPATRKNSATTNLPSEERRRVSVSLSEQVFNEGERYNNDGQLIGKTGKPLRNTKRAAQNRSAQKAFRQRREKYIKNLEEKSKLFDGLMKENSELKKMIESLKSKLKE
Description: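 Universal 'all 10-mer' protein binding microarrays (Agilent AMADID 015681) probed with GST-tagged S. cerevisiae TFs (full-length or DBD) made by in vitro transcription/translation (PURExpress), about 100-200 nM. Bound TF was detected with fluorescent anti-GST. Each ungapped 8-mer (which stands for itself and its reverse complement) is scored by the PBM enrichment score (E-score), a modified Wilcoxon-Mann-Whitney statistic from -0.5 to +0.5, computed with the Universal PBM Analysis Suite. Scale: above 0.35 generally sequence-specific binding.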

Sequence	PBM E-score
CGGTCTAA	-0.191
TCTTGACA	0.0823
ACTAAGTG	0.016
GAGGAGCA	-0.209
GTTCTGAA	0.019
CGGAGCGC	-0.205
TAGGCTCA	-0.219
CAGCACCA	-0.119
GGTCCGGA	0.0234
CGATGTTC	-0.0506
TAATAATA	0.274
CTATACAA	0.00862
GCGGCGCA	-0.141
ATTGGTGC	0.134
GAACAAGA	0.212
CACAACTG	-0.188
CTTGGAAC	-0.188
GGCAGCAC	-0.202
CAGATCCG	-0.00778
AAATAGCC	0.00796
CCCCTTCA	-0.108
ACGTTAGT	0.13
ATCCAGAT	-0.083
TCAGCACA	0.102
ACGGATGA	0.141

Copied from the list:
In PBM E-score, GAGGAGCA shows -0.209
In PBM E-score, ACGTTAGT shows 0.13
In PBM E-score, ATCCAGAT shows -0.083
In PBM E-score, CCCCTTCA shows -0.108
In PBM E-score, GGTCCGGA shows 0.0234
In PBM E-score, ACTAAGTG shows 0.016
In PBM E-score, GAACAAGA shows 0.212

Next entries follow.

Sequence	PBM E-score
GTTCGGAA	0.13
GGCTAGGA	-0.212
CCGATCGG	0.0299
AAATGCTT	0.0557
AATCCGCC	-0.0995
CTCCATGC	-0.0943
AGGGTGTG	-0.0723
GAGTCGGC	-0.195
CGTCAGAA	-0.204
CTCTTTCA	-0.00969
ACCTTCGT	-0.0448
AGTGGCGC	0.0474
GCGTACCA	-0.127
GGCAGACC	-0.334
ACTAGCCT	0.0336
ACACCCCT	-0.0458
ACCAGGAA	0.103
AACCTGGT	0.0147
ACCAACAG	-0.0139
ACCCCGCC	0.129
CCCGCCCA	0.169
CAATCTGA	2e-05
CAGCTCAC	-0.106
CTTTGTCC	-0.112
GCCTAAGC	-0.181

Sequence	PBM E-score
ACTGGAAG	-0.0828
GAACGCCC	-0.0594
ACGAGCGC	-0.114
AATTTGGC	-0.119
ATGTGATA	0.266
AATTACGT	0.278
ATCCCCCA	-0.456
CAGCAGTA	-0.0487
GCATTACC	-0.113
CAGCTCTC	-0.256
TAGGACTA	-0.0766
AAATCTTG	0.208
AAGACGGG	-0.104
AGACGGAC	-0.0722
GACCGTAA	-0.0305
CACAATAG	0.0337
TAGCATAA	0.0572
GGCCGGAA	-0.107
AACGTCGA	0.0559
CAAACGTG	-0.0397
ACATATGG	0.116
CTACAACC	-0.024
GGCGCAGA	0.028
ACGGTAGC	-0.178
CTCGCTTC	-0.112

Sequence	PBM E-score
CCATTGTC	0.0421
AAGTGCGG	0.0174
AGCCGTAG	0.00159
ATTGGGGG	-0.267
ACATGTTC	0.0124
GCCAGTAA	-0.0664
ACAATAGA	-0.00396
ATTCCAAA	-0.0656
CGCACTCA	0.0198
CGATAGAG	-0.169
TGACCACA	-0.0393
GGCCGGCA	0.0384
ACTTCTAG	-0.232
AAACATAG	-0.0763
CGTCAGGC	-0.039
GAGGCCGA	-0.0924
CTCCCACC	-0.238
CGTCTAGA	-0.253
ACTTTATG	0.0627
GCGTACGA	0.012
TAATAGGA	0.132
CGTGCTCA	0.0471
CCACGACG	-0.00069
GATGCCAA	-0.127
CGGCCGCC	-0.164

Sequence	PBM E-score
AATTGTGC	0.124
CCTATCGA	0.0497
CCGCTCCC	-0.355
AGACTCAC	-0.217
ATAAGTAT	0.072
CAGGTTAG	-0.109
CTTCGTTA	-0.0412
ATATCTAG	0.0618
AGGGTTTA	-0.0833
TCTTTAAA	0.0238
ATTGAGGG	-0.042
CAGCGCCA	-0.192
CAATTATC	0.277
GTAGCGAA	0.0365
ATTCGCCG	0.205
CGCGTAAG	0.176
CGACACCA	-0.038
AAGGGGCG	-0.216
AAGACCAA	-0.00577
GCGCTTCA	0.0381
GAGACTGC	-0.0906
AAACTATG	-0.0142
ACGTTAAA	0.103
CCCTGCGC	-0.159
ACTGATTA	0.249

Sequence	PBM E-score
TCGTGTCA	-0.154
CGTGCTTC	0.162
CGTTAAAG	0.00626
CCACGTAG	-0.236
ATCACCCC	0.195
AACTTATC	0.131
GCGCGTCC	-0.0582
CCTAGCCG	-0.121
CTAAAAAC	-0.238
AGCCCAGA	0.0274
GAGGTTCA	0.0639
ACAACAGA	-0.145
ATAGGCAG	0.128
CGTACTTC	0.144
ACATATCG	0.0966
TACCCGAA	0.115
CGCACCTA	-0.0996
AAACCGAT	0.013
CAGCGGCC	-0.207
CGTTATAG	0.0167
ATGTGGTG	0.114
GCGGCTCA	0.0752
TGAGAAAA	0.129
GCACTGCC	-0.0335
CATTTCTC	0.124

Sequence	PBM E-score
AACCCCCA	-0.447
AGAGTGAA	0.0882
ACGACCAC	-0.103
AGAGGCGC	-0.168
ACGCCCCT	-0.216
GGCTAGAA	-0.107
CTAACAAG	-0.0036
ACGTTCCT	-0.0798
GGAATACA	0.0766
ACCAAGAG	-0.106
CGGCGCCC	-0.201
GAGCTCAA	-0.038
CGGCTCTC	-0.164
ATCGGGGA	0.102
AGCGGATA	-0.0233
CTTTGGGA	-0.161
CTGTACAG	-0.209
AGGATCCT	-0.134
CCCCACAA	0.0961
ACATTACG	0.184
ATGCTTGC	-0.141
CGAAGCTA	-0.03
GCAACAAA	0.214
CCGACAGA	0.0622
CGCCTCTA	-0.0444

Quoted at random: three records from the list, in no set order.
Sequence	PBM E-score
AGAGTGAA	0.0882
ACCAGGAA	0.103
TCAGCACA	0.102

(next part)

Sequence	PBM E-score
CGGATTCC	0.0891
AGGTAACC	-0.051
ACACCAAA	0.14
GCACGTGC	0.0222
GCTGGAAC	-0.108
CGTCACGC	-0.0596
AAAACAAA	0.0866
GCATTTAC	0.0129
AATAGTTG	0.238
CCCGATCC	-0.123
CAGAGGTC	-0.0986
GAGGGCGA	-0.309
CTGATTCC	0.0671
AAGCACGA	0.126
CACGCCAC	-0.104
AGCCCACC	-0.157
GGGAAAAA	0.0697
ACATTGAT	0.152
AGTTGCCC	0.0814
AAGGCAAG	-0.12
AGGAAGTC	-0.166
AAGTCAGT	0.128
AGTAGATA	0.306
AGTAATGA	0.13
CGCGCCTC	-0.00598

Sequence	PBM E-score
GCCCGACC	-0.194
CGAGGAGA	-0.233
ATCTGTGC	0.0862
ACAGCGCG	-0.0181
GATCATGC	-0.102
ACCTCGAC	-0.133
CTAGGGTA	-0.193
GTTCCAAA	0.0443
ATTCTATC	0.14
AGGACACC	-0.0654
AATAGCAG	-0.0538
AATCGGTG	-0.0213
GGCATATA	0.253
ACCGCTGA	0.0928
AATAAACA	0.216
AGGTGGGA	-0.159
AATGGGAG	-0.0691
ACGTTGTG	-0.0946
CGGCGACA	-0.0141
ACGTCTCC	0.0534
GAGAAATC	0.103
GACTCCGA	-0.0498
CCAAACGC	-0.0595
TGGGTAAA	-0.178
TAAAAACA	0.174

Part of the list above, set out differently:
Sequence | PBM E-score
AATAAACA | 0.216
AGGTGGGA | -0.159

Next part

Sequence	PBM E-score
GCACAGCC	-0.159
ACCCGATG	0.153
GCCGACAA	-0.0412
ATCTTTGA	0.0934
CTTCAGCA	-0.0197
GTCTTGAA	0.0184
AAGACTAG	-0.305
AAGCCCGT	-0.238
ACACCAGA	0.0596
AAACGTTA	-0.00091
CCAAGGGC	-0.292
CGGAACCG	0.00785
CGTAACCA	0.192
CCTTCCCC	-0.204
CGCATGTC	-0.0838
GATACATA	0.235
AATGGGAT	-0.0064
CACGAGAG	-0.0839
GACCTGAA	0.0203
CTAATCTC	0.0871
TCAGCTAA	0.0484
AGAACAAA	0.194
CGCGCGAG	0.108
CAGCTAGC	-0.0954
AAAGTGGG	0.155

Sequence	PBM E-score
AATTATAT	0.229
AATGGACT	-0.0199
CTGACTGA	-0.0768
CGATCTCC	-0.109
TTTAGAAA	-0.0273
CGGTTTAC	-0.198
GCTCTATA	-0.0373
AGTCCTGA	-0.087
GTTAGTCA	0.0867
ACTGCACC	-0.0266
CACGCAAG	0.0305
CGGGGACA	-0.102
ATGATGGG	0.0496
ACGAGACG	-0.0766
GTTTGCCA	0.0942
AAACCCAT	0.244
AGTGCCGG	-0.0939
AACCGTGT	0.116
ATAGCAAG	0.216
CACTAAGC	0.0901
AGCTTGAT	-0.00094
GCGTCAAC	-0.147
CTTAAGAC	-0.122
ATGCGCTA	0.0341
CCGCGTAA	-0.051

Sequence	PBM E-score
CATTGAGC	-0.135
TAGTCAAA	0.0952
TTACGGAA	0.253
CGATCTTA	0.0787
ACGGTCCT	-0.255
CGAAGAGC	-0.0553
CAACTCAA	0.192
AACGATAT	0.285
CGATGCGC	0.0485
CGTAAAAG	0.0338
CTGAGGCA	-0.221
AAAATCGA	0.0621
GCGTCTGA	0.0418
AAAATCCG	-0.0456
ATACTATA	0.217
ACTGTCCA	-0.177
CCAAGACG	-0.123
CTTGTCGA	-0.187
AGCTGGTC	-0.217
AACCTATA	0.135
CGTCTAAG	0.0276
GTTGTCTA	0.114
ATCGACAG	0.0639
CACACAGA	0.0436
AGCCTAAG	-0.258

Sequence	PBM E-score
TATCGATA	0.0449
ACCTGGAT	-0.172
GGAGTAGA	0.0669
ACGCGTAT	0.184
AGCCCGAC	-0.197
ACCTATCT	0.121
ACTGTTTC	-0.0226
GACCCCTA	-0.163
GATCGAGC	0.019
CCCACGTC	-0.0571
CTTGCACA	-0.0377
GACAAAGC	-0.031
AATGAGGG	0.0243
CGCGGCAG	0.0728
GCCAGTCC	-0.247
AGAGCCAT	-0.119
CTGCACTC	-0.0714
AGACCCCG	-0.00663
CAGTTCCG	0.0784
ATAAGCGC	0.188
ATGAGTCC	0.00652
AAATTTGG	0.085
CTAGTGGC	-0.0739
AACAGGTA	0.0809
AATAGGCC	-0.178

Sequence	PBM E-score
AGACAAAC	-0.0527
CGTCGAAC	-0.243
CTTTAATA	0.122
CTACCGAG	-0.178
ACATGCAG	-0.0421
AAGCGTGA	0.152
CCGGATGA	-0.0838
AGCAAGCC	-0.144
CCTCGACC	-0.17
CTCAGCGA	0.0166
AACAAACT	0.0651
CCACCCGG	-0.147
ACTCAAAG	-0.036
CAAACGAA	-0.0117
ATGAGGTC	-0.0958
AGTGGTCA	-0.0431
ACTTCCGG	0.0119
CAGCGGTC	-0.142
ACCTGAAA	-0.0383
